Measured values reported in PubChem BioAssay AID504834 (National Center for Advancing Translational Sciences (NCATS), 2011).
Among all 320,000 compounds or so, about 22,000 (6.9%) were called active. This list was built around the results that the source calls inconclusive (neither active nor inactive); the mix of calls is not that of the screen. The call rests on the fitted dose curve; in most records, active means well fitted inhibition curve with a large enough effect; inconclusive means small, poorly fitted or top-dose-only effect, or another doubt; inactive means no such curve, though single readings can be large or run the other way. A potency beside an inconclusive call is a rough fit, not a confirmed value.
On the % scale 0 is the no-effect control and ±100 the full control effect; potency means the concentration at half of the fitted maximal effect.

Test: Primary qHTS for delayed death inhibitors of the malarial parasite plastid, 96 hour incubation
Conditions: P. falciparum luciferase reporter growth; series mostly up to 28.7 µM; activity change, negative = inhibition: at the top concentration
In short: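 Parasite growth measured via integrated firefly luciferase reporter in P. falciparum. Infected erythrocytes at 2% hematocrit, 0.05% parasitemia final were treated 96 hours at 37 C under 5% CO2, and luminescence was read.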
For `COc1ccc(OCc2nnc(SCC(=O)N3C(C)CCCC3C)o2)cc1` (centres undefined), the Potency was inconclusive: 14.7 µM [inhibitor, single point]. In the case of `O=C(O)c1cc(N/N=C/c2ccc3c(c2)OCO3)ccc1Cl`, the “activity change, negative = inhibition” value is reported as inactive: 439%. With `COC(=O)c1cc(C(=O)OC)cc(-n2c(C)cc(C=O)c2C)c1` the “activity change, negative = inhibition” value was inactive: 0.476%. For `O=C(N/N=C/c1ccccn1)c1cc(C2CC2)nc2ccccc12`, the Potency was inconclusive: 11.7 µM [inhibitor, single point]. For `Cn1ncc2c(O/N=C(\N)c3ccc(C(C)(C)C)cc3)ncnc21`, the Potency was inconclusive: 9.28 µM [inhibitor, partial curve]. In the case of `COc1ccc(S(=O)(=O)N(CC(=O)NC2CC2)c2ccc(C)cc2)cc1`, the Potency is reported as inconclusive: 18.5 µM [inhibitor, single point]. For `O=C(CN(Cc1cccs1)C(=O)CN1C(=O)COc2ccccc21)NCc1ccco1`, the “activity change, negative = inhibition” value was inactive: 49.7%. In the case of `O=C1C(Cl)=C(NCCCN2CCOCC2)C(=O)N1CCc1ccccc1`, the Potency is reported as inconclusive: 11.7 µM [inhibitor, partial curve, poor fit]. For `CCOc1ccc(NC(=O)CN(C)S(=O)(=O)c2ccc3c(c2)CCC(=O)N3)cc1`, the Potency was inconclusive: 2.94 µM [inhibitor, single point]. For `CCc1ccc(-c2cc(C(=O)NN3CCN(C)CC3)c3ccccc3n2)cc1`, the Potency was inconclusive: 18.5 µM [inhibitor, single point]. For `O=C1N=C(N2CCN(c3ccccc3)CC2)S/C1=C/c1ccco1`, the Potency was inconclusive: 3.7 µM [inhibitor, full curve]. With `COc1ccc(-n2nnnc2SCC(=O)c2ccc3c(c2)OCCO3)cc1` the Potency was inconclusive: 11.7 µM [inhibitor, single point]. For `COc1cc(C(=O)NCCOc2ccc(Cl)cc2)ccc1OCc1c(C)noc1C`, the Potency was inconclusive: 3.7 µM [inhibitor, full curve]. With `CC1(C)CN=C(N(Cc2ccccc2)C(=O)Nc2ccccc2)S1` the “activity change, negative = inhibition” value was inactive: 95.9%. For `O=C(Nc1ccccc1)N1CCC(C(=O)N2CCN(c3ccccc3F)CC2)CC1`, the Potency was inconclusive: 9.28 µM [inhibitor, single point]. In the case of `Cc1ccc(S(=O)(=O)n2ccc3c(OCCOCCNCc4ccc(F)cc4)cccc32)cc1`, the Potency is reported as active: 10.4 µM. For `CC(C)N(C(=O)CSc1nc2c([nH]1)c(=O)n(C)c(=O)n2C)c1ccccc1`, the Potency was inconclusive: 18.5 µM [inhibitor, single point]. For `CC1=CC(=O)N(c2ccn(C)n2)C1=O`, the Potency was inconclusive: 0.0329 µM [inhibitor, full curve, poor fit]. For `CCCCn1c(N)c(N(CC(C)C)C(=O)c2ccc(S(=O)(=O)N3CCC(C)CC3)cc2)c(=O)[nH]c1=O`, the Potency was inconclusive: 10.4 µM [inhibitor, partial curve]. For `Nc1nnc(SCCCC(=O)c2ccccc2)s1`, the “activity change, negative = inhibition” value was inactive: 22.7%. In the case of `CC(/C=N/NC(=O)Cc1cccn1C)=C\c1ccccc1`, the “activity change, negative = inhibition” value is reported as inactive: -9.86%. With `CCOC(=O)c1ccc2c(c1)nc(SCC(=O)N1CCOCC1)n2CC` the “activity change, negative = inhibition” value was inactive: -12.4%. For `COc1ccc(CCNS(=O)(=O)c2cn(C)nc2C)cc1`, the “activity change, negative = inhibition” value was inactive: -3.77%. In the case of `CCOc1cc(-c2noc(CCCC(=O)NC3CCCCC3)n2)ccc1OC`, the Potency is reported as inconclusive: 3.29 µM [inhibitor, partial curve, poor fit]. In the case of `COc1ccc(Cc2nnc(NC(=O)c3cc(OC)cc(OC)c3)s2)cc1`, the Potency is reported as inconclusive: 7.38 µM [inhibitor, partial curve]. In the case of `COc1cc(CNC2CCCC2)cc(OC)c1OC`, the Potency is reported as inconclusive: 18.5 µM [inhibitor, single point]. In the case of `COc1ccccc1N1CCN(C(=O)CCSCc2ccccc2F)CC1`, the Potency is reported as inconclusive: 9.28 µM [inhibitor, partial curve, poor fit]. In the case of `CCOc1cc(N2C(=O)CC3CS(=O)(=O)CC32)c(OCC)cc1NC(=O)c1ccccc1` (centres undefined), the “activity change, negative = inhibition” value is reported as inactive: 61.6%. In the case of `CC(CNC(=O)C1CCCN(S(=O)(=O)N2CCOCC2)C1)c1ccccc1` (centres undefined), the Potency is reported as inconclusive: 18.5 µM [inhibitor, single point]. For `CC12CCC3(CO)COC(c4ccccc4O1)C2C3` (centres undefined), the Potency was inconclusive: 5.22 µM [inhibitor, partial curve]. In the case of `CCC1CCCCN1CCCNC(=O)CC1Oc2ccc(C)cc2NC1=O` (centres undefined), the Potency is reported as inconclusive: 4.15 µM [inhibitor, partial curve, poor fit]. For `CC(=O)N/C(=N/c1nc(C)cc(C)n1)Nc1cc(C)cc(C)c1`, the Potency was inconclusive: 2.62 µM [inhibitor, full curve]. For `COc1ccc(CCNC(=O)CN2CCN(c3cccc(Cl)c3)CC2)cc1OC`, the Potency was inconclusive: 5.86 µM [inhibitor, partial curve, poor fit]. With `CCCCOc1cccc(C2/C(=C(\O)c3ccc4c(c3)OCCO4)C(=O)C(=O)N2CCN2CCOCC2)c1` (centres undefined) the Potency was inconclusive: 11.7 µM [inhibitor, single point]. With `O=C(CSc1ccc2nnc(-c3cccnc3)n2n1)Nc1cccc(F)c1` the Potency was inconclusive: 10.4 µM [inhibitor, single point]. With `COc1ccc(CC(=O)NNC(=O)c2cccs2)cc1` the Potency was active: 2.94 µM. In the case of `O=C(Nc1ccccc1)N(CCN1CCOCC1)Cc1cccc(Cl)c1`, the Potency is reported as inconclusive: 18.5 µM [inhibitor, single point]. For `COc1ccc2nc(SC(C)C(=O)NC3(C#N)CCCCC3)[nH]c2c1` (centres undefined), the Potency was inconclusive: 0.928 µM [inhibitor, partial curve, poor fit]. In the case of `COc1c(Cl)cc(C(=O)NCc2ccco2)cc1Cl`, the Potency is reported as inconclusive: 18.5 µM [inhibitor, single point]. In the case of `COc1cc(OC)cc(C(=O)NC2CCSc3ccccc32)c1` (centres undefined), the Potency is reported as inconclusive: 13.1 µM [inhibitor, single point]. For `COc1ccc(C(=O)NC(=S)Nc2ccc(N3CCCC3)cc2)cc1`, the activity change, negative = inhibition was inactive: 47.1% [at 5.75 µM]. In the case of `CCOC(=O)CC(=O)CSc1nc(C)cc(C)c1C#N`, the “activity change, negative = inhibition” value is reported as inactive: -21.4%. With `COc1ccc(C(NC(=O)C2CCCCC2)c2c(O)ccc3ccccc23)cc1` (centres undefined) the Potency was inconclusive: 11.7 µM [inhibitor, single point]. For `C=CCn1c(SCCOc2ccc(OC)cc2)nnc1C(CO)NC(=O)c1ccc(OC)cc1` (centres undefined), the Potency was inconclusive: 11.7 µM [inhibitor, single point].
